According to patent US20230235074A1 (University of Texas, published 2023):
These are yes or no findings as the source states them, for the method shown. Some entries that bind do so weakly or less than the wild type.

Protein sequences, listed by entry. Tags and fused reporters are not part of them. Lines headed by an entry give the natural chain unless they say otherwise; changes in a name come on top. Residues count along the entry.
UniProt Q10589, residues 49-161: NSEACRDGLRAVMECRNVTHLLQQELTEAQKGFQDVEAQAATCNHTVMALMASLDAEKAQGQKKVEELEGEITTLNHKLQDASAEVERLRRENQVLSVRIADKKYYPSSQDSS

Tests used:
[1] = molecular target: BST2 long isoform (BST2-D, full length BST2, 180 amino acids) expressed on HEK293 transfectants (human) (UniProt Q10589); experiment: cell-based ELISA, hybridoma supernatant on dried HEK293 BST2-long cells
[2] = molecular target: BST2 long isoform (BST2-D, full length BST2, 180 amino acids) expressed on HEK293 transfectants (human) (UniProt Q10589); experiment: flow cytometry, hybridoma supernatant (FIG. 7)
[3] = molecular target: BST2 long isoform (BST2-D, full length BST2, 180 amino acids) expressed on HEK293 transfectants (human) (UniProt Q10589); experiment: cell-based ELISA on dried cells, hybridoma supernatant, OD 450 nm
[4] = molecular target: T1, BST2 long isoform peptide (BST2-D peptide), positions 133-156 (human); experiment: ELISA dilution assay, plate coated with BST2 peptide alone, hybridoma supernatant undiluted and 1/15, 1/225, 1/3375, OD 450 nm (axis unlabelled on the sheet)
T1 sequence (peptide): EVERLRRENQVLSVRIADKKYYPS

[5] = molecular target: BST2 long isoform (BST2-D, full length BST2, 180 amino acids) expressed on HEK293 transfectants (human) (UniProt Q10589); experiment: flow cytometry on HEK293-long transfectant, told in the discussion
[6] = molecular target: T1, BST2 long isoform peptide (BST2-D peptide), positions 133-156 (human); experiment: ELISA, hybridoma supernatant on free peptide
[7] = molecular target: BST2 long isoform (BST2-D, full length BST2, 180 amino acids) expressed on HEK293 transfectants (human) (UniProt Q10589); experiment: flow cytometry, hybridoma supernatant on transduced HEK-293 cells
[8] = molecular target: BST2 long isoform (BST2-D, full length BST2, 180 amino acids) expressed on HEK293 transfectants (human) (UniProt Q10589); experiment: flow cytometry, mAb 1 ug/ml on HEK293 long transfectant (FIG. 8)
[9] = molecular target: Recombinant human BST2 protein (Catalog number 13370-H07H, Sino Biological) (human) (UniProt Q10589); experiment: flow cytometry on MM1 cells after preincubation of the mAb with soluble BST2 protein
[10] = molecular target: T1, BST2 long isoform peptide (BST2-D peptide), positions 133-156 (human); experiment: ELISA, hybridoma supernatant on plate-coated BST2-D peptide (1 ug/ml)
[11] = molecular target: BST2 long isoform (BST2-D, full length BST2, 180 amino acids) expressed on HEK293 transfectants (human) (UniProt Q10589); experiment: cell-based ELISA, hybridoma supernatant (FIG. 6)
[12] = molecular target: BST2 long isoform (BST2-D, full length BST2, 180 amino acids) expressed on HEK293 transfectants (human) (UniProt Q10589); experiment: immunocytochemistry on HEK-293 transduced cells
[13] = molecular target: BST2 long isoform (BST2-D, full length BST2, 180 amino acids) expressed on HEK293 transfectants (human) (UniProt Q10589); experiment: flow cytometry, hybridoma supernatant
[14] = molecular target: BST2 long isoform (BST2-D, full length BST2, 180 amino acids) expressed on HEK293 transfectants (human) (UniProt Q10589); experiment: immunocytochemistry on paraffin sections of HEK293 transfectants (FIG. 18B)

Measured: binding

B1: anti-BST2-long monoclonal antibody clone LA5 (antibody, mouse IgG1, V domains shown)
VH: EVQLQQSGAELVRSGASVNLSCTASGFNIKDYYIHWVKQRPERGLEWIGWIDPENGDTEYAPEFQGKASMTADTSSNTAYLQLSSLTSEDTAVYYCKRGDWGQGTLVTVSA
VL: DVLMTQTPLSLPVSLGDQASISCRSSQSIVHSNGNTYLEWFLQKPGQSPKLLIYKVSNRFSGVPDRFSGSGSGTDFTLKISRVEAEDLGVYYCFQGSHAPFTFGSGTELEIK
notes: Mouse hybridoma antibody; Used as hybridoma supernatant in the screening assays and as Protein A purified mAb afterwards; also called LA5 mAb; MAb LA5
binds: [1] | [2] | [3] | [4] | [5] | [6] | [7] | [8] | [9] | [10] | [11] | [12] | [13] | [14]

B2: BM7 antibody (antibody, IgG1, V domains shown)
VH: QVTLKESGPGILKPSQTLSLTCSFSGFSLSTSGVGVGWIRQPSGKGLEWLAHIWWDDDEYYNPSLKSQLTISKDTSRNQVFLKITSVDTSDTATYYCARRYYGDAMDYWGQGTAVTVSS
VL: DVVMTQTPVSLPVSLGDQASISCRSTQSLVHSNGHTYLHWYLQKPGQSPKLLIYKVSNRFSGVPDRFSGTGSGTDFTLKISRVEAEDLGVYFCSQSTHVPYTFGGGTKLEIK
notes: Tested as hybridoma supernatant
binds: [1] | [2] | [3] | [4] | [6] | [7] | [10] | [11] | [13]
